From patent publication US20210024639A1 (AGOMAB THERAPEUTICS, published 2021)

B1: Fab 76H10 (Fab, V domains shown)
VH: QLQLVESGGGLVQPGGSLRVSCTASGFTFNTYYMTWVRQAPGKGLEWVSDINSGGGTYYADSVKGRFTISRDNAKNTLYLQMNSLKPEDTALYYCVRVRIWPVGYDYWGQGTQVTVSS
VL: QAVVTQEPSLSVSPGGTVTLTCGLSSGSVTTSNYPGWFQQTPGQAPRTLIYNTNNRHSGVPSRFSGSISGNKAALTITGAQPEDEADYYCSLYTGSYTTVFGGGTHLTVL
notes: llama Fab (VH-CH1, lambda VL-CL) with MYC flag, crude periplasmic extract
B2: Fab 71C3 (Fab, V domains shown)
VH: QLQLVESGGGLVQPGGSLRLSCAASGFTFSSHAMSWVRQAPGKGLEWVSAINSGGGSTSYADSVKGRFTISRDNAKNTLYLQMNSLKPEDTAVYYCAKELRFDLARYTDYEAWDYWGQGTQVTVSS
VL: SYELTQPSALSVTLGQTAKITCQGGSLGSSYAHWYQQKPGQAPVLVIYDDDSRPSGIPERFSGSSSGGTATLTISGAQAEDEGDYYCQSADSSGNAAVFGGGTHLTVL
notes: as for B1
B3: Fab 71D4 (Fab, V domains shown)
VH: B2 VH with Q1E, S31G, H32Y, A33G, A50D, E99D, L100M, F102L, D103Y, T108N
VL: B2 VL with Y2S, E3A
notes: as for B1
B4: Fab 71A3 (Fab, V domains shown)
VH: EVQLVESGGGLVQPGGSLRLSCAASGFSFKDYDITWVRQAPGKGLEWVSTITSRSGSTSYVDSVKGRFTISGDNAKNTLYLQMNSLKPEDTAVYYCAKVYATTWDVGPLGYGMDYWGKGTLVTVSS
VL: B2 VL
notes: as for B1
B5: Fab 71G2 (Fab, V domains shown)
VH: EVQLQESGGGLVQPGGSLRLSCAASGFTFSIYDMSWVRQAPGKGLEWVSTINSDGSSTSYVDSVKGRFTISRDNAKNTLYLQMNSLKPEDTAVYYCAKVYGSTWDVGPMGYGMDYWGKGTLVTVSS
VL: SSALTQPSALSVSLGQTARITCQGGSLGSSYAHWYQQKPGQAPVLVIYGDDSRPSGIPERFSGSSSGGTATLTISGAQAEDEDDYYCQSTDSSGNTVFGGGTRLTVL
notes: as for B1
B6: Fab 76G7 (Fab, V domains shown)
VH: QVQLVESGGNLVQPGGSLRLSCAASGFTFSNYYMSWVRQAPGKGLEWVSDIYSDGSTTWYSDSVKGRFTISRDNAKNTLSLQMNSLKSEDTAVYYCARVKIYPGGYDAWGQGTQVTVSS
VL: QAGLTQPPSVSGSPGKTVTISCAGNSSDVGYGNYVSWYQQFPGMAPKLLIYLVNKRASGITDRFSGSKSGNTASLTISGLQSEDEADYYCASYTGSNNIVFGGGTHLTVL
notes: as for B1
B7: Fab 72F8 (Fab, V domains shown)
VH: ELQLVESGGGLVQPGGSLRLSCAASGFTFSNYVMSWVRQAPGKGLEWVSDTNSGGSTSYADSVKGRFTISRDNAKNTLYLQMNSLKPEDTALYYCARSFFYGMNYWGKGTQVTVSS
VL: QSALTQPPSLSASPGSSVRLTCTLSSGNNIGSYDISWYQQKAGSPPRYLLNYYTDSRKHQDSGVPSRFSGSKDASANAGLLLISGLQPEDEADYYCSAYKSGSYRWVFGGGTHVTVL
notes: as for B1
B8: chimeric llama-human IgG1 mAb 76H10 (antibody, V domains shown)
VH: B1 VH
VL: B1 VL
B9: chimeric llama-human IgG1 mAb 71D6 (antibody, V domains shown)
VH: B2 VH with Q1E, H32Y, A33G, G54Y, L100V, F102A, A105S, T108N, A112S, W113Y
VL: QPVLNQPSALSVTLGQTAKITCQGGSLGARYAHWYQQKPGQAPVLVIYDDDSRPSGIPERFSGSSSGGTATLTISGAQAEDEGDYYCQSADSSGSVFGGGTHLTVL
B10: chimeric llama-human IgG1 mAb 71C3 (antibody, V domains shown)
VH: B2 VH
VL: B2 VL
B11: chimeric llama-human IgG1 mAb 71D4 (antibody, V domains shown)
VH: B2 VH with Q1E, S31G, H32Y, A33G, A50D, E99D, L100M, F102L, D103Y, T108N
VL: B2 VL with Y2S, E3A
B12: chimeric llama-human IgG1 mAb 71A3 (antibody, V domains shown)
VH: B4 VH
VL: B2 VL
B13: chimeric llama-human IgG1 mAb 71G2 (antibody, V domains shown)
VH: B5 VH
VL: B5 VL
B14: Fab 71G3 (Fab, V domains shown)
VH: QVQLVESGGGLVQPGGSLRVSCAASGFTFSTYYMSWVRQAPGKGLEWVSDIRTDGGTYYADSVKGRFTMSRDNAKNTLYLQMNSLKPEDTALYYCARTRIFPSGYDYWGQGTQVTVSS
VL: QAVVTQEPSLSVSPGGTVTLTCGLSSGSVTTSNYPGWFQQTPGQAPRTLIYNTNSRHSGVPSRFSGSISGNKAALTIMGAQPEDEADYYCSLYPGSTTVFGGGTHLTVL
notes: as for B1
B15: Fab 71D6 (Fab, V domains shown)
VH: B2 VH with Q1E, H32Y, A33G, G54Y, L100V, F102A, A105S, T108N, A112S, W113Y
VL: B9 VL
notes: as for B1

Tests used:
[1] = molecular target: T1, human MET extracellular domain (ECD) (human, UniProt P08581 25-932); experiment: SPR and ELISA, periplasmic Fab
T1 construct: range 1-932; recombinant ECD; also called hMET; human MET ECD

[2] = molecular target: T2, mouse MET extracellular domain (ECD) (mouse, UniProt P16056 25-931); experiment: SPR and ELISA, periplasmic Fab
T2 construct: range 1-931; recombinant ECD; also called mMET; mouse MET ECD

[3] = molecular target: llama MET ECD (llama); experiment: ELISA, protein in solid phase
[4] = molecular target: llama-human MET chimeric protein CH6; experiment: ELISA, protein in solid phase
[5] = molecular target: llama-human MET chimeric protein CH7; experiment: ELISA, protein in solid phase
[6] = molecular target: T1, human MET extracellular domain (ECD); experiment: ELISA, MET ECD in solid phase
[7] = molecular target: T2, mouse MET extracellular domain (ECD); experiment: ELISA, MET ECD in solid phase
[8] = molecular target: T1, human MET extracellular domain (ECD); experiment: ELISA, protein in solid phase, mAb 0-20 nM
[9] = molecular target: llama-human MET chimeric protein CH1; experiment: ELISA, protein in solid phase, mAb 0-20 nM
[10] = molecular target: llama-human MET chimeric protein CH2; experiment: ELISA, protein in solid phase, mAb 0-20 nM
[11] = molecular target: llama-human MET chimeric protein CH3; experiment: ELISA, protein in solid phase, mAb 0-20 nM
[12] = molecular target: llama-human MET chimeric protein CH4; experiment: ELISA, protein in solid phase, mAb 0-20 nM
[13] = molecular target: llama-human MET chimeric protein CH5; experiment: ELISA, protein in solid phase, mAb 0-20 nM
[14] = molecular target: llama-human MET chimeric protein CH4; experiment: ELISA, protein in solid phase
[15] = molecular target: llama-human MET chimeric protein CH5; experiment: ELISA, protein in solid phase
[16] = molecular target: llama-human MET chimeric protein CH6; experiment: ELISA, protein in solid phase, mAb 0-20 nM
[17] = molecular target: llama-human MET chimeric protein CH7; experiment: ELISA, protein in solid phase, mAb 0-20 nM

Binder	binding [1]	binding [2]	binding [3]	binding [6]	binding [7]	binding [8]	binding [9]	binding [10]	binding [11]	binding [14]	binding [15]	binding [16]	binding [17]	also measured
B1	binds	binds	–	–	–	–	–	–	–	–	–	–	–	–
B2	binds	binds	–	–	–	–	–	–	–	–	–	–	–	–
B3	binds	binds	–	–	–	–	–	–	–	–	–	–	–	–
B4	binds	binds	–	–	–	–	–	–	–	–	–	–	–	–
B5	binds	binds	–	–	–	–	–	–	–	–	–	–	–	–
B6	binds	binds	–	–	–	–	–	–	–	–	–	–	–	–
B7	binds	binds	–	–	–	–	–	–	–	–	–	–	–	–
B8	–	–	no binding (tested: 0-20 nM)	binds	binds	binds	binds	binds	binds	–	–	–	–	binding [4]: no binding (tested: 0-20 nM); binding [5]: no binding (tested: 0-20 nM); binding [12]: binds; binding [13]: binds
B9	–	–	no binding (tested: 0-20 nM)	binds	binds	binds	binds	binds	binds	no binding (tested: 0-20 nM)	no binding (tested: 0-20 nM)	binds	binds	–
B10	–	–	no binding (tested: 0-20 nM)	binds	binds	binds	binds	binds	binds	no binding (tested: 0-20 nM)	no binding (tested: 0-20 nM)	binds	binds	–
B11	–	–	no binding (tested: 0-20 nM)	binds	binds	binds	binds	binds	binds	no binding (tested: 0-20 nM)	no binding (tested: 0-20 nM)	binds	binds	–
B12	–	–	no binding (tested: 0-20 nM)	binds	binds	binds	binds	binds	binds	no binding (tested: 0-20 nM)	no binding (tested: 0-20 nM)	binds	binds	–
B13	–	–	no binding (tested: 0-20 nM)	binds	binds	binds	binds	binds	binds	no binding (tested: 0-20 nM)	no binding (tested: 0-20 nM)	binds	binds	–
B14	binds	binds	–	–	–	–	–	–	–	–	–	–	–	–
B15	binds	binds	–	–	–	–	–	–	–	–	–	–	–	–

Substitutions are numbered along the chain they refer to. These are yes or no findings as the source states them, for the method shown. For part of these data: A result given as binding can be weak or reduced; the word gives no strength.
